At least one compound was matched to its structure with a doubt left.
System: Ehrlich ascites cells
Experiment: Transmission electron microscopy of Ehrlich ascites cells from intraperitoneal liquid after treatment
Format: cell-based, A2G mice
Settings: twenty-four hours after the treatment

Structure (SMILES): CCN(CC)c1ccc(C(=C2C=CC(=[N+](CC)CC)C=C2)c2ccccc2)cc1 [brilliant green]
- lipid droplet synthesis (TEM): slightly stimulated
